Data on 3 molecules can be found in patent US5520901A, “Method for the recovery of iodine from an environment” (General Electric Company, priority 1993, dated 1996).

The nature of data set [1]: Residual mercury in the solids after mercury removal and iodine recovery.
Data set [2] in a line: Recovery of iodine from treated phenolic resin with calcium hydroxide (unaccounted iodine).
Data set [3] can be described thus: Recovery of iodine from mercury-decontaminated phenolic resin with calcium sulfite (amount of iodine unaccounted for).
Data set [4] in a line: Recovery of iodine from treated phenolic resin with sodium sulfite (unrecovered iodine).

A value given as a limit tells only on which side of the number the result lay.

Turning to `[Ca+2].[OH-].[OH-]` [Ca(OH)2, calcium hydroxide], in data set [1] (after KI/I2 extraction and 0.2 g Ca(OH)2, 65° C., 3 hours, initially 371 ppm), the “mercury content of solids” value amounted to 27 ppm. Further, in data set [2] (0.2 g Ca(OH)2, 50 mL water, 65° C., 3 hours, before 0.165 g/g), the unaccounted iodine is given as 0.07 g I per gram of phenolic resin. The “g Lost I/g Material” value worked out at 0.06 g Lost I/g Material in data set [2] (additive 4%, 3 hr, 65 °C, none 0.17, water 0.12); 0.07 g Lost I/g Material in data set [2] (additive 40%, 3 hr, 22 °C); 0.05 g Lost I/g Material in data set [2] (additive 40%, 3 hr, 65 °C); 0.06 g Lost I/g Material in data set [2] (additive 40%, 21 hr, 65 °C).

Regarding `O=S([O-])[O-].[Ca+2]` [Calcium Sulfite, calcium sulfite], the “mercury content of solids” value in data set [1] (after KI/I2 extraction and 3.9 g calcium sulfite, 45° C., 16 hours, initially 225 ppm) is listed as 30 ppm. Moreover, the “iodine unaccounted for after analysis of all solutions for iodine and iodide” value in data set [3] (3.9 g CaSO3.2H2O, 50 mL water, 45° C., 16 hours, initial missing iodine 0.18 g/g) is recorded as 0.03 g iodine/g phenolic resin. The “g Lost I/g Material” value in data set [3] (1 hr, 22 °C, 0.4 g CaSO3.2H2O/g material, liquid/solid ratio 5, untreated 0.197) was determined as 0.116 g Lost I/g Material; in data set [3] (6 hr, 22 °C, 0.2 g/g, liquid/solid ratio 5) it was 0.070 g Lost I/g Material; in data set [3] (6 hr, 22 °C, 0.4 g/g, liquid/solid ratio 2), 0.078 g Lost I/g Material; in data set [3] (6 hr, 22 °C, 0.4 g/g, liquid/solid ratio 5), 0.072 g Lost I/g Material; in data set [3] (6 hr, 22 °C, 0.4 g/g, liquid/solid ratio 10), 0.080 g Lost I/g Material; in data set [3] (6 hr, 22 °C, 1.0 g/g, liquid/solid ratio 5), 0.141 g Lost I/g Material. Further, the “g Lost I/g Material” value was determined as 0.059 g Lost I/g Material in data set [3] (6 hr, 45 °C, 0.4 g/g, liquid/solid ratio 5); 0.007 g Lost I/g Material in data set [3] (6 hr, 65 °C, 0.4 g/g, liquid/solid ratio 5); 0.073 g Lost I/g Material in data set [3] (16 hr, 22 °C, 0.4 g/g, liquid/solid ratio 5).

Turning to `O=S([O-])[O-].[Na+].[Na+]` [Sodium Sulfite, sodium sulfite], the “g Lost I/g Material” value in data set [4] (Table 2: 0.5 hr, 22 °C, 0.1 M, ratio 10/1, water rinse) was determined as 0.06 g Lost I/g Material; in data set [4] (Table 2: 1 hr, 22 °C, 0.05 M, ratio 10/1, water rinse), 0.06 g Lost I/g Material; in data set [4] (Table 2: 1 hr, 22 °C, 0.1 M, ratio 5/1, water rinse), 0.03 g Lost I/g Material; in data set [4] (Table 2: 1 hr, 22 °C, 0.1 M, ratio 10/1, no water rinse, untreated 0.13), 0.07 g Lost I/g Material; in data set [4] (Table 2: 1 hr, 22 °C, 0.1 M, ratio 10/1, water rinse), 0.07 g Lost I/g Material; in data set [4] (Table 2: 1 hr, 22 °C, 0.1 M, ratio 20/1, water rinse) it was 0.04 g Lost I/g Material. The “g Lost I/g Material” value in data set [4] (Table 2: 1 hr, 22 °C, 0.5 M, ratio 10/1, water rinse) was below 0.01 g Lost I/g Material; in data set [4] (Table 2: 1 hr, 44 °C, 0.1 M, ratio 10/1, water rinse) it was 0.03 g Lost I/g Material; in data set [4] (Table 2: 4 hr, 22 °C, 0.1 M, ratio 10/1, water rinse), 0.04 g Lost I/g Material; in data set [4] (Table 3: 1 hr, 22 °C, 0.1 M, ratio 5/1, water rinse) it was 0.05 g Lost I/g Material; in data set [4] (Table 3: 1 hr, 22 °C, 0.5 M, ratio 5/1, water rinse), 0.05 g Lost I/g Material; in data set [4] (Table 3: 1 hr, 45 °C, 0.1 M, ratio 5/1, water rinse), 0.06 g Lost I/g Material. For the same molecule, the “g Lost I/g Material” value in data set [4] (Table 3: 1 hr, 45 °C, 0.5 M, ratio 5/1, water rinse) amounted to 0.04 g Lost I/g Material; in data set [4] (Table 3: 16 hr, 22 °C, 0.1 M, ratio 5/1, water rinse) it was 0.06 g Lost I/g Material; in data set [4] (Table 3: 16 hr, 22 °C, 0.5 M, ratio 5/1, water rinse) it was 0.03 g Lost I/g Material; in data set [4] (Table 3: 16 hr, 45 °C, 0.1 M, ratio 5/1, water rinse), 0.04 g Lost I/g Material; in data set [4] (Table 3: 16 hr, 45 °C, 0.5 M, ratio 5/1, untreated 0.16), 0.03 g Lost I/g Material.
